Measurements reported in PubChem BioAssay AID504774 (Drosophila RNAi Screening Center, 2011).
The deposit covers about 23,000 reagents; below is an unselected part of those with a known target gene and a result. 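Values are quantile-normalised luminescence on an arbitrary scale; higher means more cells surviving MMS.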 Names joined by + are all predicted targets of the reagent.

Assay: 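Genes required for cells to withstand methyl methanesulphonate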 (primary screen)
Cell system: Drosophila Kc167 cells
Knock-down reagent: long dsRNA against Drosophila genes, about 0.25 µg dsRNA per well
Time to read-out: about 6 days: 3 days knock-down, then 3 days with or without MMS
Conditions: methyl methanesulphonate 0.004% (w/v) for 3 days after knock-down
Detection: 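ATP-dependent luminescence as a measure of live cells in MMS-exposed wells, quantile normalised within each plate, with replicate values also given as a mean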
Direction: mean viability with MMS and viability with MMS: higher = more surviving cells after MMS

target gene	dsRNA	mean viability with MMS	viability with MMS, replicate 1	viability with MMS, replicate 2
Aven (GeneID 32215)	DRSC19693	3.52e6	3.97e6	3.99e6
hrg (GeneID 49636)	DRSC07502	3.22e6	3.64e6	3.65e6
Sol1 (GeneID 41513)	DRSC15263	3.64e6	4.07e6	4.11e6
Sol1 (GeneID 41513)	DRSC15271	3.70e6	4.09e6	4.18e6
Sol1 (GeneID 41513)	DRSC15681	3.61e6	4.09e6	4.04e6
Ptp99A (GeneID 43469)	DRSC13933	3.68e6	4.12e6	4.18e6
Ptp99A (GeneID 43469)	DRSC13939	3.62e6	4.14e6	4.04e6
Ptp99A (GeneID 43469)	DRSC14319	3.62e6	4.10e6	4.10e6
Ptp99A (GeneID 43469)	DRSC14320	3.66e6	4.07e6	4.22e6
Ptp99A (GeneID 43469)	DRSC16803	3.78e6	4.35e6	4.18e6
Ptp99A (GeneID 43469)	DRSC22125	3.50e6	3.94e6	4.01e6
Ptp99A (GeneID 43469)	DRSC22477	3.68e6	4.15e6	4.10e6
Ptp99A (GeneID 43469)	DRSC23033	3.59e6	4.21e6	3.95e6
Arp6 (GeneID 32514)	DRSC19326	3.47e6	4.03e6	3.48e6
CG9500 (GeneID 33888)	DRSC03237	3.47e6	4.06e6	3.81e6
Rbpn-5 (GeneID 37395)	DRSC04440	3.64e6	4.28e6	4.24e6
CG30323 (GeneID 246539)	DRSC07656	3.53e6	3.97e6	4.04e6
5-HT2A (GeneID 40575)	DRSC11990	3.36e6	3.83e6	3.76e6
rush (GeneID 31105)	DRSC18568	3.53e6	3.97e6	4.06e6
Amnionless (GeneID 33199)	DRSC00317	3.47e6	3.90e6	3.95e6
Art6 (GeneID 41699)	DRSC16583	3.44e6	3.95e6	3.84e6
APC10 (GeneID 36975)	DRSC06071	3.47e6	3.93e6	3.91e6
CG1724 (GeneID 33097)	DRSC20548	3.51e6	3.95e6	4.03e6
CG4593 (GeneID 31649)	DRSC18374	3.47e6	3.91e6	3.98e6
Ppr-Y (GeneID 3355180)	DRSC20892	2.35e6	3.92e6	3.97e6
Mur2B (GeneID 31111)	DRSC18545	3.56e6	3.98e6	4.10e6
Mur2B (GeneID 31111)	DRSC18546	3.51e6	4.07e6	3.91e6
CG31715 (GeneID 318909)	DRSC21607	3.76e6	4.31e6	4.17e6
Pif1A (GeneID 8674049)	DRSC12708	3.35e6	3.77e6	3.82e6
Pif1A (GeneID 8674049)	DRSC14383	3.50e6	4.08e6	3.88e6
CG1635 (GeneID 43720)	DRSC15131	3.53e6	4.12e6	3.89e6
Smyd4-3 (GeneID 36234)	DRSC07041	3.73e6	4.31e6	4.15e6
SF1 (GeneID 43912)	DRSC16844	3.18e6	3.62e6	3.61e6
shg (GeneID 37386)	DRSC04714	3.68e6	4.10e6	4.18e6
ERp44 (GeneID 32588)	DRSC20215	3.61e6	4.33e6	3.95e6
Polr3K + Tcs1	DRSC05988	3.64e6	4.01e6	4.20e6
amx (GeneID 43869)	DRSC18736	3.36e6	3.82e6	3.83e6
CG8654 (GeneID 37275)	DRSC07231	3.65e6	4.23e6	4.06e6
Zcchc7 (GeneID 39883)	DRSC11099	3.59e6	4.12e6	4.03e6
CG3769 (GeneID 34262)	DRSC02723	3.61e6	3.97e6	4.22e6
CG17985 (GeneID 35702)	DRSC06702	3.54e6	3.91e6	4.11e6
Cpr23B (GeneID 33480)	DRSC00555	3.40e6	3.86e6	3.79e6
Cpr76Bb (GeneID 40121)	DRSC11061	3.53e6	3.84e6	4.16e6
Cpr76Bb (GeneID 40121)	DRSC22870	3.22e6	3.74e6	3.82e6
CG8100 (GeneID 39565)	DRSC10961	3.51e6	4.04e6	3.92e6
CG8945 (GeneID 32693)	DRSC20129	3.52e6	4.03e6	3.95e6
CG8945 (GeneID 32693)	DRSC20130	3.50e6	3.97e6	3.96e6
Nedd4 (GeneID 39958)	DRSC11234	3.53e6	3.90e6	4.10e6
Nedd4 (GeneID 39958)	DRSC21548	3.47e6	4.00e6	3.91e6
CG17290 (GeneID 36938)	DRSC06662	3.55e6	4.03e6	4.00e6
mtm (GeneID 33845)	DRSC03576	3.45e6	3.93e6	3.80e6
brv3 (GeneID 31246)	DRSC18657	3.52e6	4.10e6	3.89e6
CG42238 (GeneID 7354398)	DRSC03180	3.51e6	4.18e6	3.77e6
CG14628 (GeneID 31057)	DRSC18626	3.67e6	4.09e6	4.22e6
CG5909 (GeneID 43274)	DRSC15914	3.58e6	4.11e6	4.01e6
CG30184 (GeneID 246506)	DRSC22277	3.50e6	3.98e6	3.96e6
JYalpha (GeneID 5740846)	DRSC17224	3.55e6	4.06e6	4.00e6
CG9733 (GeneID 43601)	DRSC16549	3.38e6	3.75e6	3.84e6
Exd2 (GeneID 41374)	DRSC16105	3.64e6	4.10e6	4.08e6
btsz (GeneID 3346167)	DRSC14982	3.17e6	3.61e6	3.59e6
btsz (GeneID 3346167)	DRSC16231	3.53e6	4.03e6	3.99e6
PGRP-SC1b (GeneID 35861)	DRSC07215	3.58e6	4.10e6	4.03e6
CG2321 (GeneID 43471)	DRSC15439	3.65e6	4.05e6	4.21e6
cos (GeneID 35653)	DRSC07598	3.74e6	4.24e6	4.21e6
PIG-K (GeneID 31163)	DRSC18496	3.48e6	3.94e6	3.96e6
Cpr11B (GeneID 32203)	DRSC19859	3.50e6	3.80e6	4.03e6
TTLL4B (GeneID 33609)	DRSC00636	3.27e6	3.50e6	3.78e6
Hcs (GeneID 40659)	DRSC12070	3.62e6	4.12e6	4.05e6
Hcs (GeneID 40659)	DRSC12256	3.53e6	3.99e6	4.02e6

3 neighbouring reagents from above:
target gene	dsRNA	mean viability with MMS	viability with MMS, replicate 1	viability with MMS, replicate 2
Ptp99A (GeneID 43469)	DRSC22125	3.50e6	3.94e6	4.01e6
Ptp99A (GeneID 43469)	DRSC22477	3.68e6	4.15e6	4.10e6
Ptp99A (GeneID 43469)	DRSC23033	3.59e6	4.21e6	3.95e6
